{
  "source": "patent US20100239566",
  "key": {"[1]": {"target": "T1, SRF (serum response factor) (UniProt P11831)", "T1 sequence (looked up, limits assumed)": "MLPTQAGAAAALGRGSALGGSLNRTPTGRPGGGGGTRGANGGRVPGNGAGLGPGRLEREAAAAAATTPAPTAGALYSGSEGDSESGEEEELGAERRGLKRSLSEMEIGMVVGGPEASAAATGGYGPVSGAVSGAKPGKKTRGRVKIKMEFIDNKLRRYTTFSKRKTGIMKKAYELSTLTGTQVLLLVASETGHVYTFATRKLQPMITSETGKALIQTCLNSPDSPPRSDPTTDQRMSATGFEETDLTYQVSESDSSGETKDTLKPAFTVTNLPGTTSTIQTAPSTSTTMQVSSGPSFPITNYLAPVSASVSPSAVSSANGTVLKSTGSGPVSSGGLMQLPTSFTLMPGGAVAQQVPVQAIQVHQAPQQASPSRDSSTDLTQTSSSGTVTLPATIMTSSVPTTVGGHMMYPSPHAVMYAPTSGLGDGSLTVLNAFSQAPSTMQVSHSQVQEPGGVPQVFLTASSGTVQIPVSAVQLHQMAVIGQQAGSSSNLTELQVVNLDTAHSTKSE", "test": "binding assay", "settings": "ChIP with anti-SRF antibody and PCR, HLK3 treated or not with serum, protein in cells, protein details: endogenous"}, "[2]": {"target": "T1, SRF (serum response factor)", "test": "activity in cells", "settings": "indirect: luciferase reporter induced dose-dependently by serum, FGF or HGF in HLK3, protein in cells, protein details: endogenous, only the site is given"}, "[3]": {"target": "T1, SRF (serum response factor)", "test": "EMSA", "settings": "nuclear extract of HLK3 treated or not with serum; anti-SRF antibody added; 6% acrylamide gel; probe printed as 5'-CTATATAAGG X3; protein in an extract; label: 32P"}},
  "note": "For part of these data: Where cells or extracts were used, other partners may take part. Where a protein sequence is shown, tags need not be part of it.",
  "data": [
    {"sequence": "CTATATAAGG (double strand) [Enigma promoter SRE region (chromatin)]", "values": [
      {"measurement": "binding result", "setting": "[1]", "value": "binds"}
    ]},
    {"sequence": "CTATATAAGG (double strand) [Enigma promoter SRE-Luc reporter]", "values": [
      {"measurement": "activity on this sequence", "setting": "[2]", "value": "active"}
    ]},
    {"sequence": "CTATATAAGGCTATATAAGGCTATATAAGG (double strand) [Enigma promoter SRE x3 probe]", "values": [
      {"measurement": "binding result", "setting": "[3]", "value": "binds"}
    ]}
  ]
}
